Assay results from US5744485A, “Carbamates and ureas as modifiers of multi-drug resistance” (Vertex Pharmaceuticals Incorporated, priority 1995, dated 1998).
The name of at least one read-out is uncertain.

Tested on: HL60/ADR cells
Experiment: Inhibition of MRP-mediated MDR: reversal of MDR to doxorubicin in HL60/ADR cells (XTT viability, 3 days) (Table 2)
Format: cell-based
Settings: IC50 Dox alone / IC50 Dox + inhibitor, 4320 min; for MDR Ratio 0.5 μM: 0.5 μM compound; for MDR Ratio 1 μM: 1 μM compound; for MDR Ratio 2.5 μM: 2.5 μM compound; for MDR Ratio 5 μM: 5 μM compound; for MDR Ratio 10 μM: 10 μM compound
Procedure: We plated HL60/ADR cells in 96 well microtiter plates (4×10^4 cells/well). The cells were then exposed to various concentrations of doxorubicin (50 nM to 10 μM) in the presence or absence of various compounds of this invention at various concentrations (0.5-10 μM). After culturing the cells for 3 days, their viability was quantitated using the XTT dye method to assess mitochondrial function. Results were expressed as a ratio of the IC50 for doxorubicin alone to the IC50 for doxorubicin plus MDR inhibitor. IC50 values are expressed in nM. In all assays the intrinsic antiproliferative or cytotoxicity activity of the MDR inhibitors was also determined for HL60/ADR cells.

Row | SMILES | MDR Ratio 0.5 μM | MDR Ratio 1 μM | MDR Ratio 2.5 μM | MDR Ratio 5 μM | MDR Ratio 10 μM
1 | CN(C(=O)N1CCCC[C@H]1C(=O)OC(CCCc1cccnc1)CCCc1cccnc1)c1cccc(C(F)(F)F)c1 [Compound 6, (S)-1-((3-Trifluoromethylphenyl)-methyl-carbamoyl)-piperidine-2-carboxylic acid 4-pyridin-3-yl-1-(3-pyridin-3-yl-propyl)-butyl ester] | 1.3 | 1.6 | 5.6 | 28.6 | 55.6
2 | O=C(OC(COCc1ccccc1)COCc1ccccc1)[C@@H]1CCCCN1C(=O)Oc1cccc2ncccc12 [Compound 18, (S)-Piperidine-1,2-dicarboxylic acid 2-(2-benzyloxy-1-(benzyloxymethyl)-ethyl)ester 1-quinolin-5-yl ester] | 1.3 | 1.7 | 2.1 | 3.8 | 5.6
